Results are given in words; binding and its absence hold for the method and conditions named. Binding calls can cover weak binding; strength is not graded here. For some assays here: Binding seen in cells or lysates may run through a third protein. For some assays here: Where a sequence is shown, tags or fusion partners need not be part of it.
Assays:
[1] = biological target: T1, SRF in the cell extract of the EMSA (UniProt P11831); assay: native gel or EMSA; labelled IL6 promoter CArG probe (10 fmol), 2 μg of extract and 1 μg of GST-tagged YAP (51–394), 2 h at 4 °C, EMSA buffer (15 mM HEPES-KOH pH 7.9, 42 mM NaCl, 2 mM MgCl2); 5% polyacrylamide gel in TBE; the complex holds DNA; only the binder purified
T1 sequence: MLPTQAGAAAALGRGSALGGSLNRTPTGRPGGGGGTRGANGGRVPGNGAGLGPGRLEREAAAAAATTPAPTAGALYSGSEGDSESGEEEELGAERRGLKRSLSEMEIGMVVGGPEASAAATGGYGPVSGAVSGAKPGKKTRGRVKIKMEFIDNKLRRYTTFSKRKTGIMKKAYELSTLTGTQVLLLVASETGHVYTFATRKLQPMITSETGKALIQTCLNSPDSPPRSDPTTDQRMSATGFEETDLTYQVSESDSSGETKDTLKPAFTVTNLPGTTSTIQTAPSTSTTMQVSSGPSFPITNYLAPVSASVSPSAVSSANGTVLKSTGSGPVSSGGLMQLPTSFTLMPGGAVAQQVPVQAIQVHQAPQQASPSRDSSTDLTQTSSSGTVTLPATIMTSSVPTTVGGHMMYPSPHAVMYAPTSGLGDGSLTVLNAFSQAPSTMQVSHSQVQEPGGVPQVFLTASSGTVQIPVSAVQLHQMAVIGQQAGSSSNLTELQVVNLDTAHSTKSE

[2] = biological target: T2, S-tag-Flag-SRF (serum response factor), expressed in 293T cells (UniProt P11831); assay: pull-down; S-tag-Flag-SRF from 1 mg of 293T extract held on protein S agarose, washed five times with binding buffer with 500 mM LiCl; incubated with 50 μg of GST protein and 100 units of benzonase overnight at 4 °C; both purified
T2 sequence: T1 sequence

GST-tagged YAP (51–394) (from UniProt P46937-2) (domain or fragment)
binding [1]: binds | binding [2]: binds
